Binding data for one molecule are collected here from US20080249024A1, “Peptides facilitating or inhibiting a nterograde transport” (priority 2006, published 2008).

Protein sequences, listed by entry. Tags and fused reporters are not part of them. Residues count along the entry.
UniProt Q2PQA9, residues 2-963: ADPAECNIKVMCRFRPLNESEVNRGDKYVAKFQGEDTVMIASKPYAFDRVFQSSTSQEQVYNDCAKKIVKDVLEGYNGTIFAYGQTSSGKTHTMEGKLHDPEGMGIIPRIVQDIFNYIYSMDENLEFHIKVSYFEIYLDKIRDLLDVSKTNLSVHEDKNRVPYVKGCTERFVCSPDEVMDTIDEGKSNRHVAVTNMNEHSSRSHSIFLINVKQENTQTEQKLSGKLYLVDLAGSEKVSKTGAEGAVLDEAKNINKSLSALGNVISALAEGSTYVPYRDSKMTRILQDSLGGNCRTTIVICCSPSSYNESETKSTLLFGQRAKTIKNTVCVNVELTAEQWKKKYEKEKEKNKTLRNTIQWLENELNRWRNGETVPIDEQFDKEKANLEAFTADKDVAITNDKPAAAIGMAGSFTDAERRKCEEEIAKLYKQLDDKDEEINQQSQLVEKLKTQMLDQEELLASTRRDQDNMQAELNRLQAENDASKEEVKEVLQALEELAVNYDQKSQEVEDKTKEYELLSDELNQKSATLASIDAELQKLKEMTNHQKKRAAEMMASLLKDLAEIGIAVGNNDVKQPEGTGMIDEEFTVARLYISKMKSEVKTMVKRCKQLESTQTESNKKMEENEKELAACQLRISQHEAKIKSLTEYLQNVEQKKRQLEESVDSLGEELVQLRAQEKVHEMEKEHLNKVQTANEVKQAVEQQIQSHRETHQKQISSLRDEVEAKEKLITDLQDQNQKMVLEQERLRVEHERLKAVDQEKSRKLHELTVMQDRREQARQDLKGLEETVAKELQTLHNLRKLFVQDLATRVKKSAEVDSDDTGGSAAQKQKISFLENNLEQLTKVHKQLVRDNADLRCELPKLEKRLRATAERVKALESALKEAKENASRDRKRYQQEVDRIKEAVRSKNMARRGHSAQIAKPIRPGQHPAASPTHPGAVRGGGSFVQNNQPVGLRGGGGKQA

The target of experiment [1] is kinesin 1 heavy chain (from rat brain extract) (rat) (UniProt Q2PQA9). Kind of experiment: peptide-bead pull-down from rat brain extract, Western blot. A general note: A western blot detects proteins with antibodies after separation by electrophoresis.
For experiment [2] the target is unchanged. Put plainly: peptide-bead pull-down from rat brain extract, Western blot (figure legend).

These are yes or no findings as the source states them, for the method shown. Binding seen in cells or lysates may run through a third protein. Some entries that bind do so weakly or less than the wild type.

With GYENPTYKFFEQMQN, the binding entry in experiment [1] and in experiment [2] was “binds” throughout.
